Values from PubChem BioAssay AID1259260 (Sanger Institute, 2017)
This is a random part of 794 deposited reagents. Over the whole deposit, 13 (1.6%) are marked active. 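Calls reflect only knock-down without drug; synergy above 0.15 was grouped apart and does not change the call.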 A number with no mark means an inactive call. Further read-outs or replicates are left out here. Not given: the amount of reagent, the time to read-out.

Aim: 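Kinases whose knock-down kills colorectal cancer cells or boosts drug effects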 (primary screen)
System: human NCI-H716 colorectal cancer cells
Knock-down reagent: siRNA pool against human genes
Challenge: anchor drugs BYL719 (alpelisib) 1 µM, cetuximab 5 µg/ml or trametinib 10 nM, each at a dose chosen to harm viability only mildly; DMSO vehicle for the knock-down-alone arm
Measured: 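Mean viability over replicates against non-targeting siRNA, robust z-score without drug, and per-drug synergy comparing combined with single treatments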
Scale: viability robust z-score, siRNA alone: higher = more surviving cells; below -3 called essential
Call rule: 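a knock-down counts as essential if its no-drug robust z-score is lower than -3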
Calls: active = essential (knock-down alone lowers viability); inactive = no essential effect

With knock-down of CKMT1B (creatine kinase, mitochondrial 1B), the record shows viability robust z-score, siRNA alone 0.602.
Silencing of SHPK (sedoheptulokinase) gave: viability robust z-score, siRNA alone 0.0301.
After knock-down of NR4A2 (nuclear receptor subfamily 4 group A member 2) the results were viability robust z-score, siRNA alone 0.602.
Against CDK15 (cyclin dependent kinase 15), the values are viability robust z-score, siRNA alone 0.602.
Against TGFBR3 (transforming growth factor beta receptor 3), the values are viability robust z-score, siRNA alone 0.602.
Depletion of CHKB (choline kinase beta) resulted in: viability robust z-score, siRNA alone -0.202.
PAPSS1 (3'-phosphoadenosine 5'-phosphosulfate synthase 1) scored viability robust z-score, siRNA alone 0.602.
For RPS6KB1 (ribosomal protein S6 kinase B1) the deposit lists viability robust z-score, siRNA alone -0.39.
CDK20 (cyclin dependent kinase 20) scored viability robust z-score, siRNA alone 0.602.
TYK2 (tyrosine kinase 2) scored viability robust z-score, siRNA alone 0.602.
Depletion of MAP4K2 (mitogen-activated protein kinase kinase kinase kinase 2) resulted in: viability robust z-score, siRNA alone 0.474.
With knock-down of GCK (glucokinase), the screen gave viability robust z-score, siRNA alone 0.0298.
